# Data as given in PubChem BioAssay AID504444 (National Center for Advancing Translational Sciences (NCATS), 2011).
# About 7,500 (2.1%) of roughly 360,000 compounds were called active. Inconclusive results, whose numbers are uncertain, are shown with a selection of clear calls. Calls follow the shape of the dose curve; as a rule, active = well fitted inhibition curve with a large enough effect; inconclusive = small, poorly fitted or top-dose-only effect, or effect the other way; inactive = flat fitted curve, though single readings scatter. Where the call is inconclusive, the potency comes from a doubtful curve fit.
# Assay: Nrf2 qHTS screen for inhibitors; also: nearly all actives have a fitted effect of over 60% in size
# Conditions: A549 ARE-Fluc reporter, luciferase luminescence, 18-24 h; activity change, negative = inhibition: at 46 µM (top of the series)
# Procedure, shortened: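 A549 ARE_Fluc cells (5000/well, 5% FBS OPTI-MEM) pre-incubated 2 h, then treated with compounds 18-24 h at 37C/5% CO2 in concentration-response. CellTiter-Fluor viability read first; BugLite luciferase luminescence after 15 min at room temperature gives Nrf2 activity.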
# % is scaled to controls: 0 for no effect and ±100 for the full control effect; potency is read from the fitted curve at half-maximal effect.
SMILES,Potency,"activity change, negative = inhibition"
Clc1c(-c2nnc3n2CCCCC3)sc2ccccc12,"inconclusive: 5.8 µM [falling, single point]",–
COc1ccc2nc(SCC(O)c3cccc(Br)c3)[nH]c2c1 (stereo not drawn),–,inactive: -10.1%
CCCS(=O)(=O)c1nc(S(=O)(=O)c2ccc(C)cc2)c(NCCCOC(C)C)s1,–,inactive: -13.2%
CSCCC(NS(=O)(=O)c1ccc2c(c1)oc(=O)n2C)C(=O)NCc1ccc(C)cc1 (stereo not drawn),"inconclusive: 4.61 µM [activator, partial curve, poor fit]",–
CCCCCCn1c(CN2CCCCC2)nc2c1c(=O)n(C)c(=O)n2C,–,inactive: 5.48%
Cc1ccc(Sc2ccc(N3CCCC(C(=O)Nc4ccc(F)cc4)C3)nn2)cc1 (stereo not drawn),"inconclusive: 13 µM [falling, partial curve, poor fit]",–
Nc1ccc2c(c1)C/C(=C/c1ccco1)C2=O,"inconclusive: 20.6 µM [activator, single point]",–
Cc1ccccc1NC(=O)NCCCN1CCN(C)CC1,"inconclusive: 29.1 µM [activator, single point]",–
Cc1nn(-c2ccc(N3CCCCC3)nn2)c(C)c1CCC(=O)NCc1ccccc1,–,inactive: 23.6%
Cc1cccc(NC(=O)COc2ccc(Br)cc2/C=N/O)c1,"inconclusive: 5.8 µM [activator, partial curve, poor fit]",–
CC1CCN(C(=O)CSc2nc3c(cnn3-c3ccccc3)c(=O)[nH]2)CC1,active: 5.8 µM,–
COc1ccccc1C(=O)NNC(=O)c1ccccc1,"inconclusive: 1.64 µM [activator, full curve]",–
Cc1cccc(NC(=O)Cc2nc(-c3c[nH]c(C(=O)N4CCCC4)c3)cs2)c1,"inconclusive: 18.4 µM [falling, single point]",–
CC(C)n1c(N2CCN(C(=O)c3cccs3)CC2)nc2ccccc21,"inconclusive: 1.3 µM [falling, partial curve, poor fit]",–
Cc1cc(C)n2nc(C(=O)Nc3ccc4c(c3)OCO4)cc2n1,"inconclusive: 13 µM [activator, single point]",–
CCOc1ccccc1Nc1nc2ccccc2nc1NS(=O)(=O)c1ccc(Cl)cc1,"inconclusive: 5.17 µM [falling, single point]",–
COc1ccc(OC)c(/C(C)=N/Nc2ccc(C(=O)O)cc2)c1,"inconclusive: 11.6 µM [activator, partial curve, poor fit]",–
O=C(NCCc1ccc(O)cc1)c1ccc(Cl)cc1,"inconclusive: 1.46 µM [activator, full curve, poor fit]",–
Oc1c(Br)cc(Br)c(/C=N/n2c(-c3ccccc3)n[nH]c2=S)c1Br,–,inactive: 25.2%
COc1cccc(CNc2nc(Cl)nc3nc[nH]c23)c1,"inconclusive: 20.6 µM [falling, single point]",–
COc1cccc(-c2cc(=O)c3cc(NC(C)=O)ccc3[nH]2)c1,"inconclusive: 3.66 µM [falling, partial curve, poor fit]",–
Cc1cccc2cc(CN(Cc3cccnc3)C(=O)c3ccccc3F)c(Cl)nc12,"inconclusive: 29.1 µM [falling, single point]",–

SMILES,Potency,"activity change, negative = inhibition"
O=C(CN1C(=O)c2cccc3cccc1c23)Nc1ccc2c(c1)OCO2,"inconclusive: 5.17 µM [falling, partial curve, poor fit]",–
COc1ccc(-c2nc(CN3CCC(C(=O)NCc4ccc(C)cc4)CC3)c(C)o2)cc1OC,"inconclusive: 23.1 µM [falling, single point]",–
CCOC(=O)c1csc(COc2ccc(OC)cc2)n1,"inconclusive: 8.2 µM [activator, partial curve]",–
CCN1CCCC1CNS(=O)(=O)c1cc(Br)cc2c1N(C(=O)C1CC1)CC2 (stereo not drawn),"inconclusive: 29.1 µM [activator, single point]",–
O=C1c2cccc3c([N+](=O)[O-])ccc(c23)C(=O)N1O,"inconclusive: 4.11 µM [falling, full curve]",–
CCOc1ccc(CNC(=O)CCCn2c(=O)c3cccn3c3ccccc32)cc1,"inconclusive: 16.4 µM [falling, partial curve]",–
COc1cc(C(=O)NNC(=O)Cc2cccs2)cc(OC)c1OC,–,inactive: 3.52%
COc1ccc(C2=Nn3c(nnc3-c3ccccc3Cl)SC2)cc1OCC1CC1,active: 20.6 µM,–
O=C(Nc1ccccn1)c1sc2cccc(F)c2c1Cl,"inconclusive: 2.59 µM [activator, full curve]",–
O=C(COC(=O)COc1ccc(Cl)cc1)NC1CCCCCC1,–,inactive: 3.03%
FC(F)(F)c1nc2cc3nc4ccccc4[nH]c3cc2n1,"inconclusive: 29.1 µM [falling, single point]",–
CC1CN(c2nc3ccccc3nc2SCC(=O)Nc2ccc(F)cc2)CC(C)O1 (stereo not drawn),–,inactive: 9.29%
CCCN(CC1CC1)C(=S)NC(=O)c1cc(Br)ccc1Cl,"inconclusive: 18.4 µM [falling, single point]",–
Cc1ccc(OC(=O)COc2ccccc2C)c(-n2nc3ccccc3n2)c1,"inconclusive: 18.4 µM [activator, single point]",–
N/C(=N\OC(=O)c1ccccc1Cl)c1ccc(Cl)cc1,"inconclusive: 7.31 µM [activator, partial curve]",–
COc1ccc(N2CCN(C(=O)[C@H](C)NC(=O)c3ccccc3Cl)CC2)cc1,"inconclusive: 6.51 µM [falling, single point]",–
O=[N+]([O-])c1c(O)c(Cl)cc(Cl)c1Cl (tested in a mixture with another compound),"inconclusive: 29.1 µM [falling, single point]",–
CCc1nnc(SCc2cccc(Cl)c2)c2cc3sccc3n12,"inconclusive: 20.6 µM [falling, single point]",–
CCCc1nnc(NC(=O)Cn2c(=O)oc3cc(Br)ccc32)s1,"inconclusive: 32.6 µM [falling, single point]",–
COc1cccc(/C=N/Nc2ccccc2C(=O)O)c1O,"inconclusive: 16.4 µM [activator, partial curve]",–
CCOc1cccc(C(=O)Nc2ccc3oc(-c4ccncc4)nc3c2)c1,"inconclusive: 3.66 µM [falling, partial curve]",–

# Some of these compounds in order of count of non-hydrogen atoms, smallest number first:
SMILES,Potency,"activity change, negative = inhibition"
COc1cccc(/C=N/Nc2ccccc2C(=O)O)c1O,"inconclusive: 16.4 µM [activator, partial curve]",–
COc1cccc(-c2cc(=O)c3cc(NC(C)=O)ccc3[nH]2)c1,"inconclusive: 3.66 µM [falling, partial curve, poor fit]",–
COc1cc(C(=O)NNC(=O)Cc2cccs2)cc(OC)c1OC,–,inactive: 3.52%
